Assay results from US5824647A, “Chemotactic wound healing peptides” (priority 1995, dated 1998).
At least one peptide structure holds a part that was inferred or is arguable (an end, a ring closure or a residue). Ends that are not written are not given here.

System: infant foreskin fibroblasts
Experiment: Collagen production by fibroblasts (modified Peterofsky-Diegelman assay)
Assay type: cell-based, human
Conditions: [3H]proline incorporation into collagenase-sensitive protein
Protocol: The peptides of the invention were also found to stimulate collagen production by fibroblasts. Collagen production by fibroblasts in response to the peptides of the present invention was measured utilizing a modified Peterofsky-Diegelman assay. The assay is used to determine whether the peptides of the invention stimulate or inhibit collagen production by fibroblasts.
Low passage (4-12 subpassages) infant foreskin fibroblasts were plated out at a density of 10^5 cells/well in Falcon 3008 multiwell plates in complete maintenance medium containing 10% FCS. […] Aliquots of the supernatants, after TCA precipitated proteins were pelleted, were placed in vials containing Hydrofluor and then were counted in a scintillation counter. […]
A modified Peterofsky-Diegelmann assay was used to screen peptide samples for their ability to stimulate or inhibit collagen production. […] Aliquots of the supernatants, after TCA precipitated proteins were pelleted, were placed in vials containing Hydrofluor and then were counted in a scintillation counter. […]
Collagen production was measured following administration of the various 7-mer peptides 368-374 (SEQ ID NOs. 1-5) to fibroblasts. […] Collagen production was measured by incorporation of [^3 H]proline into collagenase-sensitive protein. […]

## PLPIVYYVGRKPKVEC-NH2 [PLPIVYYVGRKPKVEC]
  collagen production by fibroblasts (in words): does not alter its ability to stimulate collagen synthesis in fibroblasts in vitro
